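Plate-reader measure of the Venus reporter marking one vaccinia stage in infected cells (the cell line is not named here); read time unknown.
The test concentration is not given here.
Percent change in Venus reporter signal; lower (more negative) values mean stronger inhibition of that viral stage.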

Values are in %.
The controls that fix the scale are not given here.
Common to all entries: measured here: Venus reporter, other viral stage.
This is a side read-out of the assay, for part of the compounds, not drawn at random.

SMILES,activity change (Venus) (%)
C[C@@H]1CN([C@H](C)CO)C(=O)Cc2cc(NC(=O)Cc3ccccc3)ccc2O[C@@H]1CN(C)Cc1ccc(Cl)c(Cl)c1,-64.62
O=C(Nc1ccc(F)cc1)N1CC(=O)N2[C@H](C1)[C@@H](c1ccc(-c3ccc(F)cc3)cc1)[C@@H]2CO,-54.42
CC(C)CC#Cc1ccc2c(c1)O[C@H](CN(C)C(=O)C1CCC1)[C@H](C)CN([C@@H](C)CO)S2(=O)=O,-41.76
C[C@H](CO)N1C[C@H](C)[C@@H](CN(C)C(=O)NC2CCCC2)Oc2cc(/C=C/c3ccccc3)ccc2S1(=O)=O,-43.86
CC(C)(C)[S@@](=O)N1Cc2cc(C(=O)NCCN3CCCCC3)nc(-c3cccc(-c4ccc(C#N)cc4)c3)c2[C@H]1CCO,-3.629
C[C@H]1CN([C@@H](C)CO)C(=O)Cc2cc(NC(=O)NC3CCCCC3)ccc2O[C@@H]1CN(C)Cc1ccc(Oc2ccccc2)cc1,-30.34
CC(C)(C)[S@](=O)N1Cc2cc(C(=O)N3CCCCC3)nc(-c3cccc(-c4ccc(F)cc4)c3)c2[C@@H]1CCO,-4.481
CCCNC(=O)N(C)C[C@H]1Oc2ncc(C#CC3CC3)cc2C(=O)N([C@@H](C)CO)C[C@H]1C,-10.18
CCC(=O)N1CCCCN2[C@H](C1)[C@H](c1ccc(C#Cc3ccccc3F)cc1)[C@@H]2CO,-52.81
COc1ccc(S(=O)(=O)N(C)C[C@@H]2OCc3ccccc3-c3c(n(C)c4ccccc34)C(=O)N([C@@H](C)CO)C[C@H]2C)cc1,-44.77
CN1c2ccc(-c3cccc(C#N)c3)cc2[C@H]2[C@H](CCN2S(=O)(=O)c2ccccc2)[C@H]1CO,-29.01
Cc1ccc(-c2ccc3c(c2)O[C@@H](CN(C)Cc2cncnc2)[C@H](C)CN([C@H](C)CO)S3(=O)=O)cc1,-54.41
O=C(C[C@@H]1CC[C@@H]2[C@H](COC[C@H](O)CN2Cc2cccc(-c3ccncc3)c2)O1)N1CCCCC1,-51.7
C[C@@H]1CN([C@H](C)CO)C(=O)c2cccc(NC(=O)CCCCCC(=O)Nc3ccccc3N)c2O[C@@H]1CN(C)Cc1ccc(Oc2ccccc2)cc1,-74.58
CN1C(=O)c2cc(NC(=O)c3ccc(F)c(F)c3)ccc2OC[C@@H]2O[C@@H](CC(=O)N[C@@H]3CCN(Cc4ccccc4)C3)CC[C@@H]21,-25.73
C[C@H](CO)N1C[C@H](C)[C@@H](CN(C)Cc2ccc(-c3ccccc3)cc2)Oc2ccc(NC(=O)Nc3ccccc3)cc2C1=O,-26.63
CCS(=O)(=O)N1CC(=O)N2[C@H](C1)[C@@H](c1ccc(C#CCC3CCCC3)cc1)[C@@H]2CO,-44.12
Cc1ccc(S(=O)(=O)N[C@H]2CC[C@@H](CCn3cc(-c4cccc(F)c4)nn3)O[C@@H]2CO)cc1,-48.73
COc1ccccc1-c1cnc2c(c1)C(=O)N([C@@H](C)CO)C[C@@H](C)[C@@H](CN(C)Cc1ccc(F)cc1)O2,-39.39
C[C@@H]1CN([C@H](C)CO)C(=O)Cc2cc(NS(=O)(=O)c3ccc(Cl)cc3)ccc2O[C@H]1CN(C)Cc1ccc(Cl)c(Cl)c1,-48.13
CO[C@H]1CN(C)C(=O)c2cc(NC(=O)c3ccc(Oc4ccccc4)cc3)ccc2OC[C@H](C)NC[C@H]1C,-76.67
O=S(=O)(c1ccccc1F)N1CCCCN2[C@@H](CO)[C@@H](c3ccc(-c4ccccc4)cc3)[C@@H]2C1,-35.24
C[C@@H]1CN([C@H](C)CO)S(=O)(=O)c2ccc(-c3ccc(F)cc3)cc2O[C@H]1CN(C)C(=O)c1ccccc1F,-32.07
C[C@H]1CN([C@@H](C)CO)C(=O)c2cc(-c3cccnc3)cnc2O[C@@H]1CN(C)Cc1ccc(-c2ccccc2)cc1,-87.25
C[C@@H]1CCCCO[C@H](CN(C)Cc2ccccc2)[C@H](C)CN([C@H](C)CO)C(=O)c2cc(NC(=O)Nc3ccc(F)cc3)ccc2O1,-49.4
C[C@@H]1CN([C@@H](C)CO)S(=O)(=O)c2ccc(-c3ccc(F)cc3)cc2O[C@H]1CN(C)S(C)(=O)=O,-30.25
C[C@H]1CN([C@@H](C)CO)S(=O)(=O)c2ccc(C#Cc3ccccc3)cc2O[C@@H]1CN(C)C(=O)C1CC1,-45.94
COc1cccc(-c2ccc(C3[C@@H]4CN(C(=O)Nc5ccc(F)cc5)C[C@H]3N4)cc2)c1 (stereo partly shown),-45.28
COc1ccc(S(=O)(=O)Nc2ccc3c(c2)C(=O)N([C@@H](C)CO)C[C@H](C)[C@@H](CN(C)C(=O)Nc2ccc(F)cc2)OCCCC[C@@H](C)O3)cc1,-43.42
CCCNC(=O)N1CC2(C1)[C@@H](c1ccccc1)[C@@H](CO)N2CC1CCCC1,-23.09
O=C(Nc1ccc(F)cc1)N1CC(=O)N2[C@H](CO)[C@@H](c3ccc(-c4ccccc4)cc3)[C@@H]2C1,-27.05

The last 4 entries again:

* COc1cccc(-c2ccc(C3[C@@H]4CN(C(=O)Nc5ccc(F)cc5)C[C@H]3N4)cc2)c1 (stereo partly shown) : activity change (Venus) -45.28%
* COc1ccc(S(=O)(=O)Nc2ccc3c(c2)C(=O)N([C@@H](C)CO)C[C@H](C)[C@@H](CN(C)C(=O)Nc2ccc(F)cc2)OCCCC[C@@H](C)O3)cc1 : activity change (Venus) -43.42%
* CCCNC(=O)N1CC2(C1)[C@@H](c1ccccc1)[C@@H](CO)N2CC1CCCC1 : activity change (Venus) -23.09%
* O=C(Nc1ccc(F)cc1)N1CC(=O)N2[C@H](CO)[C@@H](c3ccc(-c4ccccc4)cc3)[C@@H]2C1 : activity change (Venus) -27.05%

From PubChem BioAssay record AID1053133 (Broad Institute, 2014).